Out of some 300,000 compounds screened, about 5,400 (1.8%) were called active. Inconclusive results, whose numbers are uncertain, are shown with a selection of clear calls. Calls come from the whole dose curve; tested in HEK293 cells. Potencies of inconclusive entries are doubtful fits and often do not repeat.
Assay: qHTS for inhibitors of binding or entry into cells for Marburg Virus
Conditions: Marburg virus pseudotyped entry inhibition, cell reporter; series mostly up to 37.8 µM
Potency is the fitted concentration of half-maximal effect.

Row | Structure (SMILES) | Potency
1 | COc1ccccc1C(=O)O/N=C1/CCCc2c1ccc(OC)c2[N+](=O)[O-] | inconclusive: 3.98 µM [activator, partial curve, poor fit]
2 | c1ccc2nc(OCCN3CC3)ccc2c1 | inconclusive: 8.91 µM [inhibitor, partial curve, poor fit]
3 | COc1ccc(N(C(=O)CNC(=O)c2ccco2)C(C(=O)NCC2CCCO2)c2ccc(OC)c(OC)c2)cc1 (stereo unspecified) | inconclusive: 2.82 µM [activator, single point]
4 | C[C@@H]1CC[C@H]2C(=O)N(Cc3ccccc3)C[C@H](O)CN2[C@@H]1c1ccc(Br)cc1 | inconclusive: 0.0237 µM [activator, full curve, poor fit]
5 | COc1cc2c(cc1OC)C(c1cc(OC)c(OC)c(OC)c1)C1(O)C(=O)OCC1(O)C2 (stereo unspecified) | inactive
6 | O=C1NC(=S)NC1Cc1ccc(O)cc1 (stereo unspecified) | inactive
7 | CCCc1ccc(C2Sc3ccccc3NC3=C2C(=O)c2ccccc23)cc1 (stereo unspecified) | inconclusive: 3.55 µM [inhibitor, partial curve, poor fit]
8 | O=c1sc(/C=N/Nc2ccccc2)c(Cl)n1Cc1ccccc1 | inconclusive: 5.62 µM [activator, single point]
9 | COc1ccc(-c2cc(C(=O)Nc3ccc(Cl)cc3Cl)c3ccccc3n2)cc1OC | inconclusive: 5.62 µM [inhibitor, partial curve, poor fit]
10 | CCOC(=O)C1C(c2cc(OC)c(O)c(OC)c2)NC(=S)NC1(O)C(F)(F)F (stereo unspecified) | inconclusive: 0.447 µM [activator, full curve, poor fit]
11 | Cc1ccc(-c2noc(CCC(=O)N3CCN(c4cccc(C(F)(F)F)c4)CC3)n2)cc1 | inconclusive: 12.6 µM [inhibitor, single point]
12 | COc1ccc(NS(=O)(=O)c2ccc(Cl)c(NC(=O)c3ccccc3F)c2)cc1 | inconclusive: 35.5 µM [inhibitor, single point]
13 | CC1CC2=C(NC(=S)NC2c2ccccc2F)/C(=C/c2ccccc2F)C1 (stereo unspecified) | inconclusive: 22.4 µM [inhibitor, single point]
14 | COc1ccccc1OCC(=O)Nc1ccc2c(c1)OCCO2 | inactive
15 | O=C(NCc1ccco1)C1CCCN(S(=O)(=O)c2ccccc2)C1 (stereo unspecified) | inconclusive: 0.146 µM [activator, partial curve, poor fit]
16 | O=C(NC(Cc1ccccc1)c1nc2ccccc2[nH]1)c1ccc(Cl)c([N+](=O)[O-])c1 (stereo unspecified) | inconclusive: 35.5 µM [inhibitor, single point]
17 | COCCNC(=O)NC(=O)COC(=O)c1cccn1C | inactive
18 | CCOC(=O)N1CCN(CC(O)COC(CC)c2ccccc2)CC1 (stereo unspecified) | inconclusive: 0.112 µM [activator, partial curve, poor fit]
19 | O=C(C1CCCCC1)N1CC(=O)N2CCc3ccccc3C2C1 (stereo unspecified) | inconclusive: 29.1 µM [activator, single point]
20 | CC(C)N(N=Nc1ccc([N+](=O)[O-])cc1)C(C)C | inactive
21 | OC(CN1CCCCC1)Cn1c2ccc(Cl)cc2c2cc(Cl)ccc21 (stereo unspecified) | active: 10 µM

Row | Structure (SMILES) | Potency
22 | CCc1ccc2[nH]c(=O)c(CN(CCCN3CCOCC3)C(=O)Nc3ccc(Cl)cc3)cc2c1 | inconclusive: 35.5 µM [inhibitor, single point]
23 | CC1NC(C)c2c(ccc3ccccc23)O1 (stereo unspecified) | inconclusive: 35.5 µM [inhibitor, single point]
24 | COc1ccc(/C=N/NC(=O)CN2CCN(Cc3ccccc3)CC2)cc1Br | inconclusive: 10 µM [inhibitor, partial curve, poor fit]
25 | COc1ccc2cc(C(N)=O)c(=Nc3ccc(C)cc3)oc2c1 | inconclusive: 10 µM [activator, partial curve, poor fit]
26 | CCC(C)c1ccc(OCCn2ccnc2)cc1 (stereo unspecified) | inconclusive: 28.2 µM [inhibitor, single point]
27 | O=C(Nc1ccc(C(=O)O)cc1)/C(=C\c1ccc2c(c1)OCO2)NC(=O)c1ccc(Br)cc1 | inconclusive: 4.47 µM [inhibitor, partial curve]
28 | CCCCN(C(=O)CSCc1c(C)noc1C)c1c(N)n(CCCC)c(=O)[nH]c1=O | inconclusive: 7.08 µM [activator, full curve, poor fit]
29 | CCCC(=O)Nc1ccc(Nc2ccccc2)cc1 | inconclusive: 5.62 µM [activator, single point]
30 | CCN(C(=O)CCCC(=O)N(CC)c1ccccc1)c1ccccc1 | inconclusive: 35.5 µM [activator, single point]
31 | CCN(CC)CCn1c2c(c(SCC(=O)Nc3nc4ccccc4s3)nc1=O)CCC2 | inconclusive: 22.4 µM [inhibitor, single point]
32 | COc1cc(OC)cc(-c2nnc(NC(=O)CCS(=O)(=O)c3ccccc3)o2)c1 | inactive
33 | O=C(N/N=C/C=C/c1ccccc1)c1cccc(Br)c1 | inconclusive: 25.9 µM [inhibitor, partial curve, poor fit]
34 | CCc1ccc(C(=O)NNc2ccc(F)cc2)cc1 | inconclusive: 3.16 µM [inhibitor, full curve]
35 | CCOC(=O)C1=C(C)N(C)C(C)=C(C(=O)OCC)C1c1ccsc1 | inconclusive: 35.5 µM [inhibitor, single point]
36 | COC(=O)/C(=C\c1c[nH]c2ccccc12)NC(C)=O | inconclusive: 3.55 µM [activator, partial curve, poor fit]
37 | COc1cccc(NC(=O)c2ccc(NS(=O)(=O)c3cccs3)cc2)c1 | inconclusive: 11.2 µM [activator, partial curve, poor fit]
38 | CCCOc1cccc(NC(=O)c2cc(C)oc2C)c1 | inconclusive: 11.2 µM [inhibitor, partial curve, poor fit]
39 | Cc1ccc(OCCCCn2ccnc2C)c(C)c1 | inconclusive: 3.98 µM [activator, partial curve, poor fit]
40 | CN1C(=O)C(O)(c2sc(N)nc2-c2ccccc2)c2ccccc21 (stereo unspecified) | inactive
41 | O=C1CN(C(=O)CN2CCCC2)C(c2ccccc2)c2cc(Br)ccc2N1 (stereo unspecified) | inconclusive: 29.1 µM [inhibitor, single point]

Retrieved one by one from above:
Row | Structure (SMILES) | Potency
17 | COCCNC(=O)NC(=O)COC(=O)c1cccn1C | inactive
38 | CCCOc1cccc(NC(=O)c2cc(C)oc2C)c1 | inconclusive: 11.2 µM [inhibitor, partial curve, poor fit]
27 | O=C(Nc1ccc(C(=O)O)cc1)/C(=C\c1ccc2c(c1)OCO2)NC(=O)c1ccc(Br)cc1 | inconclusive: 4.47 µM [inhibitor, partial curve]
